Measurements: PMC11624207
For at least one entry, the source does not settle the construct or the ends of the probe. A weaker result is weaker than the reference pair of the same experiment.

Each sequence was assayed against PC4 W89A (His-tagged) (human) (UniProt P53999) (assay: EMSA). Conditions: complexes less stable than wt (smeared); EMSA: 50 mM HEPES pH 8, 1 mM DTT, 100 mM NaCl, 0.01% BSA, 2% glycerol; 20 min on ice then 10 min at 25 C; native 8% PAGE, 0.5x TBE, 4 C; recombinant protein; protein details: N-terminal 6xHis; label: 5'-32P; single-stranded DNA.
“CCCTAACCCTAACCCTAACCCTAACCCTAA [telomeric C-rich (CCCTAA)5]”: binds more weakly.
“TTACGGTTACGGTTACGGTTACGGTTACGG [mutant telomeric G-rich (TTACGG)5]”: binds more weakly.
“TTAGGGTTAGGGTTAGGGTTAGGGTTAGGG [telomeric G-rich (TTAGGG)5]”: binds more weakly.
“GGACTCTAGCGTGGATCCTTAAGCTAGAAT [unrelated oligonucleotide]”: binds more weakly.
